PubChem BioAssay AID1671195, Yale University – 2021
Screen: 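Genes whose knockdown alters LDL uptake in liver cancer cells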 (primary screen). Cell system: human Huh7 hepatoma cells. Reagents: siRNA pool against human genes, 18 nM. Duration: about 2 to 2.5 days of knockdown, then 8 h LDL uptake. Challenge: DiI-labelled LDL at 30 µg/ml for 8 h, in lipoprotein-deficient serum medium. Measured: 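Per-cell DiI-LDL intensity by automated imaging; well means scaled to the plate median and given as a robust z-score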. Direction: robust z-score: higher = more LDL uptake after knockdown. Rule for the call: 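Active when two or more replicates show a robust z-score above 2 or below -2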.
The whole screen tested about 22,000 reagents; below is a part drawn at random. Over the whole deposit, about 1,510 (6.9%) are marked active. 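Active includes knockdowns raising or lowering LDL uptake; positive z-scores mean more uptake, negative mean less.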 Entries without a mark were called inactive. The numbers tell different reagents against one gene apart. Reagent sequences are not shown.

MED20: robust z-score, replicate 1 = 1.26; robust z-score, replicate 2 = 0.885; robust z-score, replicate 3 = 2.22
NLRP8: robust z-score, replicate 1 = 0.0568; robust z-score, replicate 2 = -0.335; robust z-score, replicate 3 = -0.555
RASSF5: robust z-score, replicate 1 = 0.789; robust z-score, replicate 2 = 1.67; robust z-score, replicate 3 = 1.55
MYH7: robust z-score, replicate 1 = 0.306; robust z-score, replicate 2 = 0.195; robust z-score, replicate 3 = 1.76
TCHP: robust z-score, replicate 1 = -0.345; robust z-score, replicate 2 = -0.143; robust z-score, replicate 3 = 0.767
IL15RA: robust z-score, replicate 1 = 1.54; robust z-score, replicate 2 = 1.11; robust z-score, replicate 3 = 0.53
RFX2: robust z-score, replicate 1 = 0.771; robust z-score, replicate 2 = 0.57; robust z-score, replicate 3 = 0.713
MYLK4: robust z-score, replicate 1 = -0.393; robust z-score, replicate 2 = -0.356; robust z-score, replicate 3 = -0.161
LOC441008 (retired record): robust z-score, replicate 1 = 15.3; robust z-score, replicate 2 = 0.118; robust z-score, replicate 3 = 0.0115
DLG2 #1: robust z-score, replicate 1 = 1.33; robust z-score, replicate 2 = 1.2; robust z-score, replicate 3 = 1.56
DLG2 #2: robust z-score, replicate 1 = -1.07; robust z-score, replicate 2 = -0.113; robust z-score, replicate 3 = -0.516
TELO2: robust z-score, replicate 1 = 1.59; robust z-score, replicate 2 = -0.547; robust z-score, replicate 3 = -0.978

Ordered by “robust z-score, replicate 2” (low to high): some entries from above
RFX2: robust z-score, replicate 1 = 0.771; robust z-score, replicate 2 = 0.57; robust z-score, replicate 3 = 0.713
IL15RA: robust z-score, replicate 1 = 1.54; robust z-score, replicate 2 = 1.11; robust z-score, replicate 3 = 0.53
